Reference: PubChem BioAssay AID1487 (National Center for Advancing Translational Sciences (NCATS), 2009)
Some of the results follow. Further columns of the screen follow, without active or inactive calls. Most of these compounds were active or inconclusive in the main read-out, so they are no random draw. Words in brackets tell the shape of the fitted curve; partial curves, single points and poor fits give uncertain potencies.

Experiment: qHTS Assay for Modulators of Lamin A Splicing
Conditions: HeLa LMNA splicing GFP/RFP minigene ratio, 48 h
Summary of the method: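 S3 HeLa cells stably expressing lamin A-EGFP splicing minigene plus DsRed2, 600 cells/well, 48 h compound exposure at 37C. Laser-scanning cytometry; analysed as GFP (500-530 nm)/RFP (575-640 nm) total intensity ratio; 0.5% DMSO vehicle.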

[1] = measured here: GFP splicing reporter channel
[2] = measured here: RFP viability control channel

SMILES	AC50 [1]	AC50 [2]
O=C(/C(=C(\[O-])c1ccccc1)[n+]1ccc2ccccc2c1)c1ccc(Cl)cc1	0.501 µM [rising, full curve]	3.98 µM [rising, full curve]
CCCc1cc(C(=O)Cc2ccc(C(=O)OCC)o2)c(O)cc1O	35.5 µM [rising, single point]	28.2 µM [rising, single point]
CCOc1ccc(OCC)c(NC(=O)C2CCN(c3cnccn3)CC2)c1	11.2 µM [rising, partial curve]	–
O=C(CN1C(=O)NC2(CCSC2)C1=O)NCc1ccccc1 (stereo unspecified)	–	0.01 µM [rising, full curve, poor fit]
O=C(Nc1ccc2[nH]c(=S)sc2c1)Nc1ccccc1F	3.98 µM [falling, full curve]	2.82 µM [falling, full curve]
Cc1nc(SCC(=O)c2cc3ccccc3oc2=O)c(C#N)c(C)c1C(=O)Nc1ccccc1	2.82 µM [falling, full curve]	2.82 µM [falling, full curve, poor fit]
O=C(Cn1cnc2ccccc2c1=O)c1ccc2ccccc2c1	11.2 µM [rising, single point]	22.4 µM [rising, single point]
CN(C)S(=O)(=O)c1cccc(-c2nn(-c3ccccc3)cc2/C=C2\SC(=S)NC2=O)c1	8.91 µM [rising, partial curve]	11.2 µM [rising, partial curve]
N#Cc1c(NC(=O)CSc2n[nH]c(Cc3ccccc3)n2)oc(-c2ccccc2)c1-c1ccccc1	–	22.4 µM [rising, partial curve]
COc1ccc(NC(=O)c2cccs2)c([N+](=O)[O-])c1	35.5 µM [rising, single point]	–
O=C(Nc1ccccc1C(F)(F)F)N1CCN(c2ccc3nnc(-c4ccc(F)cc4)n3n2)CC1	–	31.6 µM [rising, single point]
CC(C)(C)NCC(O)COc1ccccc1C(=O)CCc1ccccc1 (stereo unspecified)	1.58 µM [falling, partial curve, poor fit]	–
COc1cc(/C=C2/C(=O)c3cccc([N+](=O)[O-])c3C2=O)c(Br)cc1O	–	0.0126 µM [rising, full curve, poor fit]
CCOC(=O)N1CCN(C(=O)CCSCCc2ccncc2)CC1	14.1 µM [rising, single point]	35.5 µM [rising, single point]
N#C/C(=C/c1ccc(Sc2nc3ccccc3[nH]2)o1)c1cccc(F)c1	–	11.2 µM [rising, partial curve, poor fit]
CCCNS(=O)(=O)c1ccc(CCC(=O)NCCc2ccc(OC)c(OC)c2)cc1	0.1 µM [rising, full curve, poor fit]	–
CC1CCCC(NC(=S)Nc2ccc(SC(F)F)cc2)C1C (stereo unspecified)	17.8 µM [rising, single point]	25.1 µM [rising, single point]
Cn1c(=O)[nH]c(=O)c2c1nc(Br)n2CCOc1ccccc1	–	35.5 µM [rising, single point]
CCCCCn1c(=N)n(CC(O)COc2ccccc2OC)c2ccccc21 (stereo unspecified)	31.6 µM [rising, single point]	25.1 µM [rising, single point]
Cc1cccc(OCC(=O)Nc2ccc3nc(Nc4cccc(Cl)c4)cc(C)c3c2)c1	20 µM [falling, partial curve]	11.2 µM [falling, partial curve]
Cc1cc(C)n2nc(S(=O)(=O)N(C)Cc3ccccc3)nc2n1	0.00501 µM [falling, full curve, poor fit]	0.00447 µM [falling, full curve, poor fit]
CCCCC/C=C\C/C=C\C/C=C\CCCCC(=O)O	0.00708 µM [falling, full curve, poor fit]	–
CC(C)c1ccc2oc(=O)cc(CN3CCN(c4ccccc4)CC3)c2c1	14.1 µM [rising, partial curve]	31.6 µM [rising, single point]
COc1ccc(OCC(O)Cn2c(Nc3cccc(C)c3)nc3c2c(=O)n(C)c(=O)n3C)cc1 (stereo unspecified)	–	0.112 µM [rising, full curve, poor fit]
N#Cc1nc(COc2ccc(Br)cc2)oc1NCCCn1ccnc1	–	2.82 µM [rising, full curve]
CCC(C)n1c(SCC(=O)Nc2ccccc2C(F)(F)F)nc2ccsc2c1=O (stereo unspecified)	12.6 µM [rising, partial curve]	20 µM [rising, single point]
Cc1ccc(-c2nc3cccnc3s2)cc1NC(=O)Cc1ccccc1	–	11.2 µM [rising, partial curve]

SMILES	AC50 [1]	AC50 [2]
CCOC(=O)c1ccc(NC(=O)CSc2nc3ncccc3[nH]2)cc1	14.1 µM [rising, single point]	35.5 µM [rising, single point]
COc1ccc(NC(=O)CN2C(=O)C(c3ccccc3)=NC23CCCCCC3)cc1OC	–	15.8 µM [rising, partial curve, poor fit]
COC(=O)c1c(NC(=O)c2ccccc2[N+](=O)[O-])sc2c1CC(C)(C)NC2(C)C	–	11.2 µM [rising, single point]
Cc1cc(-n2cnnn2)ccc1C(C)C	5.01 µM [rising, partial curve]	–
COc1ccccc1Nc1ncnc2c1nc1n2CCCC1	–	0.1 µM [falling, partial curve, poor fit]
CC(=O)c1ccc(N2CCN(C(=O)c3cc(-c4cccnc4)nc4ccc(Br)cc34)CC2)cc1	–	4.47 µM [falling, full curve, poor fit]
NC(=NCCc1c[nH]c2ccccc12)NS(=O)(=O)c1ccc(F)cc1	28.2 µM [rising, single point]	25.1 µM [rising, single point]
Fc1ccc(NC(=S)NC2CC3CCCC(C2)N3Cc2cccs2)cc1 (stereo unspecified)	1 µM [falling, full curve, poor fit]	–
Cc1nnc(SCC(=O)Nc2ccc3c(c2)OCO3)[nH]c1=O	–	0.00891 µM [falling, full curve, poor fit]
COC(=O)c1sc2nc(SCc3ccccc3C)n(N)c(=O)c2c1C	12.6 µM [falling, single point]	12.6 µM [falling, partial curve]
COc1cccc(-c2nc(SCC(=O)N3CCc4ccccc43)c3c(=O)n(C)c(=O)n(C)c3n2)c1	0.355 µM [rising, single point]	–
Cc1ccc(S(=O)(=O)N(C)C)cc1NC(=S)NC1CCCC(C)C1C (stereo unspecified)	5.62 µM [rising, partial curve]	12.6 µM [rising, partial curve]
COc1ccc(-c2nc3cnccn3c2Nc2ccc3c(c2)OCO3)cc1	–	11.2 µM [rising, partial curve, poor fit]
C=CCc1c(C)nc2nc(SCC(=O)Nc3ccc(OCC)cc3)nn2c1C	–	0.0447 µM [rising, full curve, poor fit]
Cc1[nH]c2ccccc2c1CCNC(=O)c1ccc2c(c1[N+](=O)[O-])C(=O)c1ccccc1C2=O	14.1 µM [falling, partial curve]	11.2 µM [falling, partial curve]
Cc1ccccc1Nc1nc(N)nc(COC(=O)CC2CC3CCC2C3)n1 (stereo unspecified)	–	17.8 µM [rising, partial curve, poor fit]
O=C1O[C@H]([C@@H](O)CO)C(O)=C1O	0.00355 µM [falling, full curve, poor fit]	0.00251 µM [falling, full curve, poor fit]
Cc1ccc(NC(=O)c2ccc(F)c(S(=O)(=O)N3CCOCC3)c2)cc1F	6.31 µM [rising, full curve, poor fit]	10 µM [rising, partial curve]
Clc1cccc(-n2ncc3c(N4CCN(Cc5ccccc5)CC4)ncnc32)c1	–	25.1 µM [rising, partial curve]
O=S(=O)(c1ccc2ccccc2c1)N1CCN(C(=S)Nc2ccc(F)c(Cl)c2)CC1	–	12.6 µM [rising, partial curve]
Cc1noc(C)c1COC(=O)C1(c2cccc(F)c2)CCCC1	11.2 µM [rising, single point]	20 µM [rising, single point]
O=c1[nH]c(CSc2nnc(COc3ccccc3)n2-c2ccccc2)nc2ccccc12	–	10 µM [rising, partial curve]
O=C(COC(=O)c1c2c(nc3ccccc13)/C(=C\c1cccs1)CCC2)Nc1ccccc1Cl	–	7.08 µM [rising, partial curve, poor fit]
Cc1ccc(NC(=O)CCCSc2nc3ccccc3[nH]2)cc1	4.47 µM [rising, partial curve]	12.6 µM [rising, partial curve]
Clc1ccc(C(c2ccccc2Cl)C(Cl)Cl)cc1 (stereo unspecified)	4.47 µM [rising, partial curve, poor fit]	6.31 µM [falling, partial curve, poor fit]
CC(C)Oc1ccc(CNC(=O)c2ccc3nc(Cc4ccccc4)oc3c2)cc1	0.00794 µM [falling, full curve, poor fit]	–

A few values from the entries so far.
Under AC50 [2], `Cc1cc(C)n2nc(S(=O)(=O)N(C)Cc3ccccc3)nc2n1` has 0.00447 µM [falling, full curve, poor fit]
Under AC50 [2], `Cc1cccc(OCC(=O)Nc2ccc3nc(Nc4cccc(Cl)c4)cc(C)c3c2)c1` has 11.2 µM [falling, partial curve]
Under AC50 [2], `CCOC(=O)c1ccc(NC(=O)CSc2nc3ncccc3[nH]2)cc1` has 35.5 µM [rising, single point]
